This is an account of results in patent publication US20110305696A1.

Protein sequences, listed by entry. Tags and fused reporters are not part of them. Residues count along the entry.
UniProt A2V9Z4, residues 25-608: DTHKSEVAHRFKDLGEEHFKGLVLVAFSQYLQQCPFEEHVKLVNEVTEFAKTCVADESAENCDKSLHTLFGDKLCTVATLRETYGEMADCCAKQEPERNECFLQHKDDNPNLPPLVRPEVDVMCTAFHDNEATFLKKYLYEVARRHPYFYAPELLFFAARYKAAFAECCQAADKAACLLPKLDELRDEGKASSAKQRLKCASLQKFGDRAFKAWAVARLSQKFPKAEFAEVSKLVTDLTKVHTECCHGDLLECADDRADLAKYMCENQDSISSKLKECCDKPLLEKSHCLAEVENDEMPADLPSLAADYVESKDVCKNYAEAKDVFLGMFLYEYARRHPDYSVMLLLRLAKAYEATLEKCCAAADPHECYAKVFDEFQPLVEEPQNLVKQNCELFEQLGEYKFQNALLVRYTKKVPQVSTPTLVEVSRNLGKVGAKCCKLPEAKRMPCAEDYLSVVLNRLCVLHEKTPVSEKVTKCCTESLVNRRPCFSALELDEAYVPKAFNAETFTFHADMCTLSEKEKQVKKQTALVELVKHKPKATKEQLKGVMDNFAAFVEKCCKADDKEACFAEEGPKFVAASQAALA

The target in this test is Cynomolgus monkey Serum Albumin (Cynomolgus monkey) (UniProt A2V9Z4). Nature of the test: SPR (BIAcore).

Results are given in words; binding and its absence hold for the method and conditions named. Some binding calls cover weakened binding; strength is not graded here.

B1: DOM7h-11-3 (protein)
VL: DIQMTQSPSSLSASVGDRVTITCRASRPIGTTLSWYQQKPGKAPKLLILWNSRLQSGVPSRFSGSGSGTDFTLTISSLQPEDFATYYCAQAGTHPTTFGQGTKVEIKR
Consider B1, for which the binding entry is given as “binds”.
